{"source": "paper PMC7285321", "about": "“Evaluation of Indolocarbazoles from Streptomyces sanyensis as a Novel Source of Therapeutic Agents against the Brain-Eating Amoeba Naegleria fowleri” (Microorganisms, 2020)", "test_system": "Naegleria fowleri ATCC 30808 trophozoites", "assay": "In vitro amoebicidal activity, alamarBlue colorimetric assay, trophozoites", "settings": "ATCC30808, read-out: IC90 N. fowleri ATCC 30808", "description": "Amoebae were grown at 37 °C in axenic conditions in 2% (w/v) bactocasitone medium (Thermo Fisher Scientific, Madrid, Spain) supplemented with 10% (v/v) foetal bovine serum (FBS), […] of penicillin G and 0,5 mg/mL of streptomycin sulphate (Sigma-Aldrich, Madrid, Spain). As required by the Spanish Government biosafety guidelines for this pathogen, amoebic strains were cultured in a biological security facility level 3 at the Instituto Universitario de Enfermedades Tropicales y Salud Pública de Canarias, Universidad de La Laguna.\nThe in vitro activity of the four ICZs included in this study was evaluated against trophozoites of two Naegleria fowleri type strains using a colorimetric assay. Amoebae (2 × 10^5 cells/mL) were placed in a sterile 96-well microtiter plate. Next, 50 μL of a serial dilution of each of the ICZs (in N. fowleri culture medium) was added to the plate. […] After that, activity plates were evaluated with an EnSpire® Multimode Plate Reader (Perkin Elmer, Madrid, Spain) using a wavelength of 570 nm and a reference wavelength of 630 nm.\nThe IC90 values of the compounds were calculated using a GraphPad calculator (GraphPad Software, San Diego, CA, USA) based on the calculated IC50 and the Hill Slope (H). All experiments were performed in triplicate, and the mean values were also calculated."}
{"smiles": "CN[C@@H]1C[C@H]2O[C@@](C)([C@@H]1OC)n1c3ccccc3c3c4c(c5c6ccccc6n2c5c31)C(=O)NC4", "note": "[STS (1), staurosporine]", "values": [{"measurement": "IC90", "result": 580, "unit": "nM"}]}
